In article PMC7068124 one finds binding data, which are given here for 1 substance.

Amino acid sequences for entries named in this document (tags omitted).
UniProt Q9Y4B6: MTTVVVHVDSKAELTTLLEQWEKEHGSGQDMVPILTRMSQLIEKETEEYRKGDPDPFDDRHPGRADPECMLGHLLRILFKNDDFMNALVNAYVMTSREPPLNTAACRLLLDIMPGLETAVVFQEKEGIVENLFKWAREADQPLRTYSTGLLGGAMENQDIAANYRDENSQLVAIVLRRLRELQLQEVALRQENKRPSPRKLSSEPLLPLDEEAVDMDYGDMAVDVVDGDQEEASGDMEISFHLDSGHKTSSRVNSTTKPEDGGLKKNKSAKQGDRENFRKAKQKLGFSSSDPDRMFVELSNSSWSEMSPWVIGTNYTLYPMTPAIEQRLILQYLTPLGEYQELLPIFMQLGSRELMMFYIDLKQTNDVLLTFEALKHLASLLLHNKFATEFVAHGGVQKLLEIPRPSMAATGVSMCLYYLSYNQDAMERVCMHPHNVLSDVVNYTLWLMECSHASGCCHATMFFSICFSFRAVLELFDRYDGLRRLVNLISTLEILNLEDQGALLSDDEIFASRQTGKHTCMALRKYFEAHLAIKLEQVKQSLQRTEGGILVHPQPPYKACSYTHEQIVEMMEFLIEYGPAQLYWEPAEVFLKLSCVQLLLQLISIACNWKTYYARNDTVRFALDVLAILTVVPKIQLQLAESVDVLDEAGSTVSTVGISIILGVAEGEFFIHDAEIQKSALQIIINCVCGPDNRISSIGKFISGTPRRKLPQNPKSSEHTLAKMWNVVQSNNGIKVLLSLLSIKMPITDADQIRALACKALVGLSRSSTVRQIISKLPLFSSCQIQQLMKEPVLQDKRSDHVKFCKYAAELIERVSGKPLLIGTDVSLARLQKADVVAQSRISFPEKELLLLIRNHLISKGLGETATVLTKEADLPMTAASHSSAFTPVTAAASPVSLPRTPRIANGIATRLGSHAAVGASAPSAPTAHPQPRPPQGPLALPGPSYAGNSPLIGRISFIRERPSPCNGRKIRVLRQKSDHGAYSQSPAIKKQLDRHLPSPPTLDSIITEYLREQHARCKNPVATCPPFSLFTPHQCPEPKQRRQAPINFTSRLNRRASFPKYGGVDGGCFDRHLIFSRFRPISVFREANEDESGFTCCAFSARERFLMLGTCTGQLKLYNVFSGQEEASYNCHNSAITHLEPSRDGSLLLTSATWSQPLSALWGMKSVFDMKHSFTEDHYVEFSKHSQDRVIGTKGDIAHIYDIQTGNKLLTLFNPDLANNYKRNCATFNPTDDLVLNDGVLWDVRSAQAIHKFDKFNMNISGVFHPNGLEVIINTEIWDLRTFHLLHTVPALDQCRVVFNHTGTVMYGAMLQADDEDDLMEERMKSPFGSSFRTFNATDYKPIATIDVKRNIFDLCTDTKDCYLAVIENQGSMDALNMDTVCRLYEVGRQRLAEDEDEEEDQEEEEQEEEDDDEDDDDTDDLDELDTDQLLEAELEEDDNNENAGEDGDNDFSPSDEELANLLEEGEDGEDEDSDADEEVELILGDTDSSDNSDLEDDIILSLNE

These are yes or no findings as the source states them, for the method shown. In cells and extracts the contact can be indirect. Some binding calls cover weakened binding; strength is not graded here.

In the test the target is T1, Nuclear factor erythroid 2-related factor 2 (NRF2) (human (endogenous in Beas-2B)) (UniProt Q16236).
T1 sequence: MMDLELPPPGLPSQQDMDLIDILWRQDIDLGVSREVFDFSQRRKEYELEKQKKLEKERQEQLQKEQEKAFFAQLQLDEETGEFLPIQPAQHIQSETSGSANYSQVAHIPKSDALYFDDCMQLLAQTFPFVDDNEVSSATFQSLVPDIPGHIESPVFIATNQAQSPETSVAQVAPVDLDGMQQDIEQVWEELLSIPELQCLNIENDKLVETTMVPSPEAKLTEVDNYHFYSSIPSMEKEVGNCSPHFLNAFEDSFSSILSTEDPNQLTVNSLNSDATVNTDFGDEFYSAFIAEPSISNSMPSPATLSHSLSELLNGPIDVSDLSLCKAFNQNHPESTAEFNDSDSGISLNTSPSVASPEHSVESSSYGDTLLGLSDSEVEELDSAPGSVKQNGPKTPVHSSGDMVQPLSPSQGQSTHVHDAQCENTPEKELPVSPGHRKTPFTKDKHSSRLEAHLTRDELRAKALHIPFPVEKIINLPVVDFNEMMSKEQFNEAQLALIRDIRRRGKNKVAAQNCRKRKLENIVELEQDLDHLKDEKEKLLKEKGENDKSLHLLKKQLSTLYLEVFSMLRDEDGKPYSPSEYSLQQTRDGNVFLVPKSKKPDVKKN
Put plainly: co-IP; cells lysed in IP buffer (0.25% Triton X-100 in 1x PBS, protease inhibitors); antibody 1:100 for 2 h at 25°C, protein A/G magnetic beads 1 h, two washes, immunoblot; IP for NRF2 and IB for DCAF1 in Beas-2B cells, also after treatment with increasing concentrations of BC-1901S (less DCAF1 detected after NRF2 IP).

On to “DDB1 and CUL4 Associated Factor 1 (DCAF1) (from UniProt Q9Y4B6 1-1507)”, for which the binding result was “binds”.
